Results: the supplement of paper PMC11006884
This is a selection; strong and weak results do not stand in their true shares.

Protein sequences, listed by entry. Tags and fused reporters are not part of them. Lines headed by an entry give the natural chain unless they say otherwise; changes in a name come on top.
UniProt Q15170: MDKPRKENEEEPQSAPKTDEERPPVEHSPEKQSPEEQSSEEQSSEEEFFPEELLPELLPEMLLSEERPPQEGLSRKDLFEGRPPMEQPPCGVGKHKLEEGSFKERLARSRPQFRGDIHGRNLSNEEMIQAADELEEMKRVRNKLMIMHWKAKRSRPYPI
UniProt Q15392: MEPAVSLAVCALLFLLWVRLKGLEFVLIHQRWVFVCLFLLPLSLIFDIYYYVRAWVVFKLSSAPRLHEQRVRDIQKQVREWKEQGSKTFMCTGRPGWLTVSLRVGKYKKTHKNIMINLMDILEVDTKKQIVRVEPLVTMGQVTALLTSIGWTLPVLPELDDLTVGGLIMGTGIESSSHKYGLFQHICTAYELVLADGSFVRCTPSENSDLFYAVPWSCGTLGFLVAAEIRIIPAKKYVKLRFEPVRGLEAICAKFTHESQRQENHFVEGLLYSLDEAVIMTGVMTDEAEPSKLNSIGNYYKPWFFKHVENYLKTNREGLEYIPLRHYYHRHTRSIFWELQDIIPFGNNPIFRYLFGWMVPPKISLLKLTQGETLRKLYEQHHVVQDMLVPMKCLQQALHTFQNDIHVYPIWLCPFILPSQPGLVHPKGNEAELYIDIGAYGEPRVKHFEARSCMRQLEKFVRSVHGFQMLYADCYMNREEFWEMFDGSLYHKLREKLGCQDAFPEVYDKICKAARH
UniProt Q32MZ4: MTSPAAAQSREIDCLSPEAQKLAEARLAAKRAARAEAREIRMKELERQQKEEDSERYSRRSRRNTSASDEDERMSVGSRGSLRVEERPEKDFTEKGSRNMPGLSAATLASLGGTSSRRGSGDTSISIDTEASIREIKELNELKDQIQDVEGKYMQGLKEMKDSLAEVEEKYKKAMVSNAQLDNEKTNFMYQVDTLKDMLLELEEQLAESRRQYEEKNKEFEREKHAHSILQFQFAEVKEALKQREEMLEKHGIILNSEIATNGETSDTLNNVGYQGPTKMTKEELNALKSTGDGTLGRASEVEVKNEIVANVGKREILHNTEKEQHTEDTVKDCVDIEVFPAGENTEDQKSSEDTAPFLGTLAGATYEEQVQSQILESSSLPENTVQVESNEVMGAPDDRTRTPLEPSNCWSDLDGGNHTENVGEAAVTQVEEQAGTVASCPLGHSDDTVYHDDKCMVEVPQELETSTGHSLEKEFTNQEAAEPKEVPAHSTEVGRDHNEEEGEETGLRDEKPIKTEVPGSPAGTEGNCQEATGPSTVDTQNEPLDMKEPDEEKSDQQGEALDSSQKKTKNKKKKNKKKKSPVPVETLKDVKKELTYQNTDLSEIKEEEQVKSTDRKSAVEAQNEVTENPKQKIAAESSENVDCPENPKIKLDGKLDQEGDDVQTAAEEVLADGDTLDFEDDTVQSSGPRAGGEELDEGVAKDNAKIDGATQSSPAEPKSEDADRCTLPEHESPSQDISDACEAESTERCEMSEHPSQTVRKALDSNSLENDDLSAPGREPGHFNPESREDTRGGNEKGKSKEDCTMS
UniProt Q15393: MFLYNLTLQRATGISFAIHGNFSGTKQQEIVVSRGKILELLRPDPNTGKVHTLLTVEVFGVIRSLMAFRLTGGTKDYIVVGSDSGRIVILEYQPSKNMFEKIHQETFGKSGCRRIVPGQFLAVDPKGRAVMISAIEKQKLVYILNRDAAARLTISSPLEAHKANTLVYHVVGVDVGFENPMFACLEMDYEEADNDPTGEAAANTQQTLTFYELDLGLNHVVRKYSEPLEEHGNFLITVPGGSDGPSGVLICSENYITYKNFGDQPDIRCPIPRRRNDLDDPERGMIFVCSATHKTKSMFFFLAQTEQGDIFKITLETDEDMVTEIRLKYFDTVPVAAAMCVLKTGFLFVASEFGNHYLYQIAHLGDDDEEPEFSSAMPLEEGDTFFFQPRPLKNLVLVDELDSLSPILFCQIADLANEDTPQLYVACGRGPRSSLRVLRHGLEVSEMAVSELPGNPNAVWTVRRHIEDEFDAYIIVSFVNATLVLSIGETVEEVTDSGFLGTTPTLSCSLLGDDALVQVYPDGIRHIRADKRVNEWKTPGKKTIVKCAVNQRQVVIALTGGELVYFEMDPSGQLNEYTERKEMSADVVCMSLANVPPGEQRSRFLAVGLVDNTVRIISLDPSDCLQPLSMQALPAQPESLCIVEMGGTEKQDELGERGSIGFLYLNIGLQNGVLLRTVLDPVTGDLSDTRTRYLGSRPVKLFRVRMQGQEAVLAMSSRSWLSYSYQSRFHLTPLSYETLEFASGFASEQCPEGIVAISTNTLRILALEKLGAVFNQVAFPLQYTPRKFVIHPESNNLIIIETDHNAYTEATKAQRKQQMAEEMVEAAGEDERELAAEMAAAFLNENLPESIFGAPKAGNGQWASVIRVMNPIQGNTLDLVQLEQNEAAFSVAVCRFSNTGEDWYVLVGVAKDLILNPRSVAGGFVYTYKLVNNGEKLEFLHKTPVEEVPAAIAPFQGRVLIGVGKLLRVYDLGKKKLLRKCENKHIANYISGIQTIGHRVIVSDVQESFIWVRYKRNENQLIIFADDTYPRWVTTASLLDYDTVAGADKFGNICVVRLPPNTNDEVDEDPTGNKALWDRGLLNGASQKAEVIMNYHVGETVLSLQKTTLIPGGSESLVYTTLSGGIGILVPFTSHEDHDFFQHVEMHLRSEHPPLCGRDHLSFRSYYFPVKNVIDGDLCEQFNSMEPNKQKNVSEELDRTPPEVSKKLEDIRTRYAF
UniProt Q27J81, whole entry, looked up: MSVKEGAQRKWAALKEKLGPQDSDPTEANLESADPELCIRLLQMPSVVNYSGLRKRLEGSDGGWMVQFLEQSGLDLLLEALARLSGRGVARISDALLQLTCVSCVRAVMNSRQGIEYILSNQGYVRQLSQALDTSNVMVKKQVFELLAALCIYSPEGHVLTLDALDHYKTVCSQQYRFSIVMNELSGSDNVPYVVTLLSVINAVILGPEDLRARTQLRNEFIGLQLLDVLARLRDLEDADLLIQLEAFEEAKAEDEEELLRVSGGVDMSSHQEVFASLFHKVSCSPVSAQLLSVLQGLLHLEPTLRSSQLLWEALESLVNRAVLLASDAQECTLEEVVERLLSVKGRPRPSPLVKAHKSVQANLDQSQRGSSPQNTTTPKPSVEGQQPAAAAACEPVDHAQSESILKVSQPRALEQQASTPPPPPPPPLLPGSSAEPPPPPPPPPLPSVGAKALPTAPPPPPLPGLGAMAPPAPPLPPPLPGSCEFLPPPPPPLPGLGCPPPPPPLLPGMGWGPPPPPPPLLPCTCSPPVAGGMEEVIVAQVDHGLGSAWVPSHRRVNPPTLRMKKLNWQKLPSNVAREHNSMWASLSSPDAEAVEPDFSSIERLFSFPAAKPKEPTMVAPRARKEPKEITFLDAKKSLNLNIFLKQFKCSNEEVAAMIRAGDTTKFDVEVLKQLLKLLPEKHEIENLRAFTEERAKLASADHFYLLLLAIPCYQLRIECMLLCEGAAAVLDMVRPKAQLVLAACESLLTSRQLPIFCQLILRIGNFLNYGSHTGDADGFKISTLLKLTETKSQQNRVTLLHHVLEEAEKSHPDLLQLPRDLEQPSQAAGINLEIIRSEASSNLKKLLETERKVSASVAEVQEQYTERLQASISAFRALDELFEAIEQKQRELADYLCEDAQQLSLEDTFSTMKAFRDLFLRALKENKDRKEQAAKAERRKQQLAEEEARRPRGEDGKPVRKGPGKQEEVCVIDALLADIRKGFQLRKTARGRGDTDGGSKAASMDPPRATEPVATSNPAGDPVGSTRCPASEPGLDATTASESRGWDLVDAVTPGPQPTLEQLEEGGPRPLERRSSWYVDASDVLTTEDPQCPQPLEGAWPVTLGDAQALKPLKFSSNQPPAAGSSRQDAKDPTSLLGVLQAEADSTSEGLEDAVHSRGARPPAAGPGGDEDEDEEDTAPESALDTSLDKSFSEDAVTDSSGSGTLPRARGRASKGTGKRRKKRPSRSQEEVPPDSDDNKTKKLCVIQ
UniProt Q3KQU3: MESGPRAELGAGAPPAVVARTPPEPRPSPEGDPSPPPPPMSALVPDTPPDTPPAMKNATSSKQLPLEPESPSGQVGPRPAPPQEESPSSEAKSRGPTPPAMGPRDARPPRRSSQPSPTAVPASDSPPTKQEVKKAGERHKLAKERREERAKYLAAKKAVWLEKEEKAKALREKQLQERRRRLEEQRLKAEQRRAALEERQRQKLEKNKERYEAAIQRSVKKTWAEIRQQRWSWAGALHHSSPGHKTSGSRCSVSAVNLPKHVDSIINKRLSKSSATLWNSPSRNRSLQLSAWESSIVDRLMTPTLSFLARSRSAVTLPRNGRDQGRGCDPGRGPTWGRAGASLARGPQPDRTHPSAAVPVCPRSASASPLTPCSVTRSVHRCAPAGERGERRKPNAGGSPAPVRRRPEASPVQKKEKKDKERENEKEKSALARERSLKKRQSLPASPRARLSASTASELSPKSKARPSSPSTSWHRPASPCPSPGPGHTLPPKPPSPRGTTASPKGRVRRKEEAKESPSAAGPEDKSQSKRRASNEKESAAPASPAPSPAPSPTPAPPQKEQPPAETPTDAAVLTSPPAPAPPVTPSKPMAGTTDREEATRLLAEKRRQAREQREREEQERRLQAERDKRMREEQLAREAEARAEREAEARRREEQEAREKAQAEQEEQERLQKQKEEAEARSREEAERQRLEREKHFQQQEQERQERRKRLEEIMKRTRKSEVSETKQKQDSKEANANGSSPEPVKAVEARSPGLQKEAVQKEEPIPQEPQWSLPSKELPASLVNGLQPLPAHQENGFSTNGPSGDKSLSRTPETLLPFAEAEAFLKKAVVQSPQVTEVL
UniProt Q2KHR3: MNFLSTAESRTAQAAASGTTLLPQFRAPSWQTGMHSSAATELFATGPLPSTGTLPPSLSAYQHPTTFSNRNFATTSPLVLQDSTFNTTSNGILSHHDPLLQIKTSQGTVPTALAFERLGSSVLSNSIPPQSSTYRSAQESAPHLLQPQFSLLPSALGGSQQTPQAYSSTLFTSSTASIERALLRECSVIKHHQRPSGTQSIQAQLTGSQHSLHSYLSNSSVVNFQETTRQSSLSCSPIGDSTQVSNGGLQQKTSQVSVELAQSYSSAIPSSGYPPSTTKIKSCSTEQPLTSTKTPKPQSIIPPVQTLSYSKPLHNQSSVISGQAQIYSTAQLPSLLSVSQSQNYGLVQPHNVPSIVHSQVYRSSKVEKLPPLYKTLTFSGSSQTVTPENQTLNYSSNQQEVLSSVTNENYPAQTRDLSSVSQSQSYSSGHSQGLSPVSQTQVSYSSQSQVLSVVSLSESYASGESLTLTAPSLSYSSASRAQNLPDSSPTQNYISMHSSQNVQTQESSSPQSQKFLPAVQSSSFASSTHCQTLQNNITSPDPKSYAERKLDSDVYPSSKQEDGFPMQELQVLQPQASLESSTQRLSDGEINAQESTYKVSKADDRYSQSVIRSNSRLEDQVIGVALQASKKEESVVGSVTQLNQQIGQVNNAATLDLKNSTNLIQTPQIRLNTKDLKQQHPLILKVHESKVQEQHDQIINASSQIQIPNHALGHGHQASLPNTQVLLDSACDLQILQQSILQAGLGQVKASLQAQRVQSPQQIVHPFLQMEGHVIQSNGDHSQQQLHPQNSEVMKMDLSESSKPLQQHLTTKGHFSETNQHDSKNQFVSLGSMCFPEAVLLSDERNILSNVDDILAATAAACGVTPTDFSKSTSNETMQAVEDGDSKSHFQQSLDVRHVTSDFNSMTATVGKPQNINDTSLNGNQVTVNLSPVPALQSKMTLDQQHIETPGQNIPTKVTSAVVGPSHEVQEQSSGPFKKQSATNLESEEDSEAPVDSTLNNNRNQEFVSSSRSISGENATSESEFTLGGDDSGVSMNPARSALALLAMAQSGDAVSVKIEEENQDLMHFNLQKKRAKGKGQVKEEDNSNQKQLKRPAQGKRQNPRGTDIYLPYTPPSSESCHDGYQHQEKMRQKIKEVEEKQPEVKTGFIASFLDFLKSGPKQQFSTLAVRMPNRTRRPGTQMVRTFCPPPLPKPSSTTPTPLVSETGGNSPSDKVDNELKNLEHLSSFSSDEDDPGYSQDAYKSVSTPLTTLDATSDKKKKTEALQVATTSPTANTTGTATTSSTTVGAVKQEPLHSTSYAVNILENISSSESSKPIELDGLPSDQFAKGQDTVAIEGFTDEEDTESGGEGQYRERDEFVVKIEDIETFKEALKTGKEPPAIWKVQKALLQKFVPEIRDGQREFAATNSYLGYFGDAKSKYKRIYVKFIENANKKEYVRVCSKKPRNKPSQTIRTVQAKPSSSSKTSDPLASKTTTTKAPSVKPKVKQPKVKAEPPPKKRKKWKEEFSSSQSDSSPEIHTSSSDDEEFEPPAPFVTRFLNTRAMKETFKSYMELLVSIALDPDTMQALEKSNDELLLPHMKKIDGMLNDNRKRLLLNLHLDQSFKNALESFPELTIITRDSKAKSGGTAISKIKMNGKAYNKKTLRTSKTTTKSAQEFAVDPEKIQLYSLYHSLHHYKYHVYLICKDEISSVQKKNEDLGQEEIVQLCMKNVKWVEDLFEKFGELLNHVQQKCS

Each target was assayed with COC(=O)C#Cc1ccccc1 [methyl 3-phenylpropiolate] (assay: log2 ratio of iodoacetamide-alkyne labeling of the cysteine site, DMSO over compound (competition); higher = stronger covalent engagement of the cysteine by the compound, active = 1 or more). Settings: 500 µM; treatment time 1 h; system: HEK293T cell lysate.
Outline: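 After 1 h at ambient temperature with vehicle or electrophile (500 µM), HEK293T lysate (2 mg/mL) was labelled for 1 h with iodoacetamide alkyne and clicked to sCIP-TMT reagents. Pooled samples were trypsin-digested overnight at 37 °C, streptavidin-enriched, acid-eluted and analysed by Orbitrap Eclipse LC-MS/MS with FAIMS, then quantified in FragPipe over three replicates with duplicate channels. A cysteine's log2 competition ratio is its mean control-channel over mean compound-channel reporter intensity. Cysteines quantified in only one replicate were not included.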
For RBBP7 C202 (UniProt Q16576), the “log2 ratio of iodoacetamide-alkyne labeling” value (shortened to “log2 ratio”) was inactive: 0.321. For UniProt Q49MG5_C239, the “log2 ratio” value was inactive: 0.191. With TSR1 C126 (UniProt Q2NL82) the “log2 ratio” value was inactive: 0.753. In the case of UniProt Q16352_C10, the “log2 ratio” value was inactive: 0.636. With TCEAL1 C88 (UniProt Q15170) the “log2 ratio” value was inactive: 0.735. CSRP2 C122 (UniProt Q16527) was tested, and the “log2 ratio” value was inactive: 0.0039. In the case of FLYWCH1 C173 (UniProt Q4VC44), the “log2 ratio” value was inactive: -0.0462. In the case of EIF4H C85 (UniProt Q15056), the “log2 ratio” value was inactive: 0.25. SUZ12 C494 (UniProt Q15022) was tested, and the “log2 ratio” value was inactive: -0.102. For DHCR24 C91 (UniProt Q15392), the “log2 ratio” value was inactive: 0.502. With SURF2 C127 (UniProt Q15527) the “log2 ratio” value was inactive: 0.293. LRRFIP1 C14 (UniProt Q32MZ4) was tested, and the “log2 ratio” value was inactive: 0.0967. For SF3B3 C1179 (UniProt Q15393), the “log2 ratio” value was inactive: -0.0873. SLC1A5 C363 (UniProt Q15758) was tested, and the “log2 ratio” value was inactive: 0.266. For UniProt Q15365_C109, the “log2 ratio” value was inactive: 0.524. UniProt Q2M1P5_C667 was tested, and the “log2 ratio” value was inactive: 0.291. With FAM98C C287 (UniProt Q17RN3) the “log2 ratio” value was inactive: 0.129. With ACOX1 C449 (UniProt Q15067) the “log2 ratio” value was inactive: 0.174. With LRRC41 C170 (UniProt Q15345) the “log2 ratio” value was inactive: 0.328. INF2 C1029 (UniProt Q27J81) was tested, and the “log2 ratio” value was inactive: 0.557. In the case of TRIP11 C1722 (UniProt Q15643), the “log2 ratio” value was inactive: 0.115. BAK1 C14 (UniProt Q16611) was tested, and the “log2 ratio” value was inactive: 0.498. For UniProt Q15042_C335, the “log2 ratio” value was inactive: 0.153. In the case of SS18 C34 (UniProt Q15532), the “log2 ratio” value was inactive: 0.159. For RBBP7 C116 (UniProt Q16576), the “log2 ratio” value was inactive: -0.0161. LARS2 C167 (UniProt Q15031) was tested, and the “log2 ratio” value was inactive: -0.0977. For MAP7D1 C361 (UniProt Q3KQU3), the “log2 ratio” value was active: 1.65. In the case of PAFAH1B3 C205 (UniProt Q15102), the “log2 ratio” value was inactive: 0.0931. For SETDB1 C987 (UniProt Q15047), the “log2 ratio” value was inactive: -0.18. For HNRNPUL2 C408 (UniProt Q1KMD3), the “log2 ratio” value was inactive: 0.159. For PDS5A C589 (UniProt Q29RF7), the “log2 ratio” value was inactive: 0.582. For TBCE C301 (UniProt Q15813), the “log2 ratio” value was inactive: 0.581. With ERCC6L C825 (UniProt Q2NKX8) the “log2 ratio” value was inactive: 0.442. In the case of DBN1 C308 (UniProt Q16643), the “log2 ratio” value was inactive: -0.11. For EFTUD2 C842 (UniProt Q15029), the “log2 ratio” value was inactive: 0.204. In the case of QSER1 C530 (UniProt Q2KHR3), the “log2 ratio” value was inactive: 0.146. With DLGAP5 C448 (UniProt Q15398) the “log2 ratio” value was inactive: 0.023.
